In PubChem BioAssay AID1347075 (National Center for Advancing Translational Sciences (NCATS), 2019):
Among all 400,000 compounds or so, about 5,500 (1.4%) were called active. This list was built around the results that the source calls inconclusive (neither active nor inactive); the mix of calls is not that of the screen. Calls follow the shape of the dose curve; as a rule, active = well fitted cell-killing curve with a large enough effect; inconclusive = small, poorly fitted or top-dose-only effect, or effect the other way; inactive = flat fitted curve, though single readings scatter. Potencies beside an inconclusive call are fits to weak or partial responses and may not hold up.

Test: qHTS assay for MDR1-selective chemotherapeutics: Primary screen using the parental adenocarcinoma cell KB-3-1; also: nearly all actives have a fitted effect of over 60% in size
Conditions: KB-3-1 viability, CellTiter-Glo ATP luminescence, 72 h; activity change, negative = cytotoxic: at 46.1 µM (top of the series)
Procedure, shortened: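 Cytotoxicity measured as CellTiter-Glo luminescence after 72 h at 37 C. Compound titrations were pinned onto drug-naive KB-3-1 parental adenocarcinoma cells grown in DMEM with 10% FBS, and normalized data fitted to concentration-response curves.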
% is scaled to controls: 0 for no effect and ±100 for the full control effect; potency is read from the fitted curve at half-maximal effect.

| SMILES | activity change, negative = cytotoxic | Potency |
| --- | --- | --- |
| O=C(NCc1ccccc1)C1c2ccccc2OCC(=O)N1Cc1cccnc1 (stereo not given) | inactive: 12.1% |  |
| COc1ccc2c(c1)[C@H]1[C@H](CO2)[C@H](c2ccccc2)[C@]2(C)C(=O)Nc3ccc(F)cc3C(=O)N12 |  | inconclusive: 29.1 µM [cytotoxic, single point] |
| S=c1[nH]c2cnc(Cl)nc2[nH]1 |  | inconclusive: 29.1 µM [rising, single point] |
| Cc1ccc(Cl)cc1-n1c(=O)c2sc3ccccc3c2n(CC(=O)NC2CCCCC2)c1=O | inactive: -4.74% |  |
| C#CCNC(=O)C1=C[C@@H](c2ccc(Br)cc2)[C@H](CCCO)[C@@H](OCC)O1 | inactive: 8.68% |  |
| CC(=O)Nc1cccc(-c2ccnc3c2CC(C)(C(=O)Nc2ccc4c(c2)OCO4)O3)c1 (stereo not given) |  | active: 2.31 µM |
| CCC1COCCS(=O)(=O)N1Cc1cccc(C(F)(F)F)c1 (stereo not given) |  | inconclusive: 20.6 µM [cytotoxic, partial curve] |
| Oc1c(C(c2ccccn2)N2CCC(Cc3ccccc3)CC2)cc(Cl)c2cccnc12 (stereo not given) |  | inconclusive: 18.4 µM [cytotoxic, single point] |
| COc1ccc(C)cc1S(=O)(=O)N(C)CC(=O)N1CCCCC1 | inactive: 1.43% |  |
| O=c1c2ccccc2nnn1CSc1ncnc2ccccc12 |  | inconclusive: 29.1 µM [cytotoxic, single point] |
| CC1(C(=O)NS(=O)(=O)c2cccc(C#N)c2)CCN1C(=O)C1(c2ccc(Cl)cc2)CCC1 (stereo not given) | inactive: -4.43% |  |
| Cc1ccc2c(CC(=O)NCc3ccccc3)coc2c1C |  | inconclusive: 29.1 µM [cytotoxic, single point] |
| Cn1ccnc1C(OC(=O)c1ccccc1)C(F)(F)F (stereo not given) | inactive: -2.04% |  |
| CC(=O)c1sc2nc(C)c3c(c2c1N)CCCC3 |  | inconclusive: 2.91 µM [rising, partial curve, poor fit] |
| COc1ccccc1C(=O)Nc1ccc(NC(=O)c2ccco2)cn1 | inactive: 1.23% |  |
| Cc1ccc(C)n1-c1c(C(=O)NCC(C)c2ccccc2)sc2ncccc12 (stereo not given) |  | inconclusive: 32.6 µM [cytotoxic, single point] |
| COc1c(Cl)c(=O)oc2ccc(Cl)cc12 | inactive: -0.36% |  |
| CCCCCc1c(-c2ccccc2OC)ncn1CCc1ccccc1OC |  | active: 23.1 µM |
| CCNC(=S)N(CCc1c(C)[nH]c2ccc(F)cc12)Cc1cccnc1 |  | inconclusive: 0.731 µM [cytotoxic, full curve, poor fit] |
| COC(=O)c1cc(NC(=O)C2COc3ccccc3O2)ccc1Cl (stereo not given) |  | inconclusive: 23.1 µM [rising, partial curve] |
| COc1ccccc1C(=O)NNS(=O)(=O)c1ccc(F)cc1 | inactive: 7.13% |  |
| Cc1nn(Cc2ccccc2)c(C)c1NC(=O)CSc1nc(C2CC2)nc2c1cnn2-c1ccccc1 |  | inconclusive: 29.1 µM [cytotoxic, single point] |
| CCc1ccccc1NC(=O)Cn1c(=O)n(CCCS(=O)(=O)C2CCCCC2)c(=O)c2ccccc21 | inactive: -12% |  |

| SMILES | activity change, negative = cytotoxic | Potency |
| --- | --- | --- |
| Cc1ccc(C(=O)Nc2ccc(S(=O)(=O)Nc3cnc4ccccc4n3)cc2)cc1 | inactive: -19% |  |
| CC(=O)Nc1ccc(NC(=O)C(C)OC(=O)/C=C/c2cn(-c3ccccc3)nc2-c2cccnc2)cc1 (stereo not given) |  | inconclusive: 29.1 µM [cytotoxic, single point] |
| CC(=O)c1cc(C(=O)NC2CCCc3c2cnn3-c2cc(C)cc(C)c2)[nH]n1 (stereo not given) |  | inconclusive: 14.6 µM [cytotoxic, single point] |
| Cc1ccc(N(CC(=O)NCc2ccccn2)S(=O)(=O)c2ccccc2)cc1C | inactive: 17.1% |  |
| O=S(=O)(Nc1cccc(-c2ccc(N3CCCCCC3)nn2)c1)c1ccc(F)cc1 |  | inconclusive: 29.1 µM [cytotoxic, single point] |
| CCN(CC)C(=O)Cn1cc(C(=O)C(=O)Nc2ccc3c(c2)OCCO3)c2ccccc21 |  | inconclusive: 18.4 µM [cytotoxic, single point] |
| CCOC(=O)c1cnc(SC)nc1Oc1cccc(NS(=O)(=O)c2ccc(C)cc2)c1 | inactive: 14.5% |  |
| c1ccc2c(Nc3nc4c(s3)CCCC4)cccc2c1 |  | inconclusive: 29.1 µM [cytotoxic, single point] |
| CCCc1cc(C(=O)N(C)CC(=O)Nc2ccc(OCC)c(OCC)c2)sc1C |  | inconclusive: 25.9 µM [cytotoxic, partial curve] |
| Cc1cc(Nc2ccccc2C(=O)O)n(-c2cccc(Cl)c2)n1 | inactive: -14.6% |  |
| CC1=NNC(=O)C1Oc1ccccc1 (stereo not given) |  | inconclusive: 3.66 µM [cytotoxic, partial curve, poor fit] |
| O=C(Nc1cccnc1)c1ccc(COc2cc(Cl)ccc2Cl)o1 |  | inconclusive: 32.6 µM [cytotoxic, single point] |
| COCCCNC(=O)c1ccc(Cn2c(=O)c3ccccc3n(CC(=O)NCCc3ccc(OC)c(OC)c3)c2=O)cc1 |  | inconclusive: 29.1 µM [cytotoxic, single point] |
| COc1cc(OC)nc(-n2ncc(Br)c(Br)c2=O)n1 |  | active: 6.51 µM |
| Clc1ccc2c(c1)c1cc(Cl)ccc1n2CN1CCOCC1 |  | inconclusive: 14.6 µM [cytotoxic, partial curve, poor fit] |
| CCc1nnc(NC(=O)CSc2nnc(CNc3ccc(Cl)cc3)o2)s1 |  | inconclusive: 2.59 µM [rising, full curve, poor fit] |
| CCOC(=O)C1CCCN(S(=O)(=O)c2ccc(N3CCCCS3(=O)=O)cc2)C1 (stereo not given) | inactive: 2.08% |  |
| c1ccc(-c2csc3ncnc(Sc4nnnn4-c4ccccc4)c23)cc1 |  | inconclusive: 29.1 µM [cytotoxic, partial curve, poor fit] |
| CCOCCCn1c(SCC(=O)NC(C)C)nc2ccccc2c1=O |  | inconclusive: 8.2 µM [rising, partial curve] |
| CCCC(C)c1oc(=O)cc(O)c1C (stereo not given) | inactive: 1.97% |  |
| CC(C)[C@H]1c2ccc(F)cc2CC[C@@]1(CCN(C)CCCc1nc2ccccc2[nH]1)OC(=O)C1CC1 |  | inconclusive: 29.1 µM [cytotoxic, single point] |
| O=C(CC(CC(=O)c1ccc(Br)cc1)c1cccnc1)c1ccc(Br)cc1 |  | inconclusive: 23.1 µM [cytotoxic, single point] |

Part of the list above, comma-delimited.
SMILES,"activity change, negative = cytotoxic",Potency
CCOCCCn1c(SCC(=O)NC(C)C)nc2ccccc2c1=O,,"inconclusive: 8.2 µM [rising, partial curve]"
CCCC(C)c1oc(=O)cc(O)c1C (stereo not given),inactive: 1.97%,
